Laboratory results: the supplement of paper PMC12823440, “Inhibitors supercharge kinase turnover through native proteolytic circuits” (Nature, 2025)
Counter-ions that a name gives are not always drawn. Some of the results follow. Hit calls seldom repeat between salt and free forms of one compound.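 Kinases, fused to nanoluciferase, were expressed in K562 cells; luminescence was measured every 4 h from 2 to 18 h as percent of control (DMSO = 100%, positive control = 0%). A time point is decreased if signal falls significantly (2 sigma). Hits were called by the authors by a rule that is not shown; the count of time points alone does not decide it.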

By UniProt entry, the sequences of proteins in these tests, tags left out. Where a name states a change or a piece, a line headed by the entry shows the natural chain unless it says otherwise.
UniProt Q05397, whole entry, looked up: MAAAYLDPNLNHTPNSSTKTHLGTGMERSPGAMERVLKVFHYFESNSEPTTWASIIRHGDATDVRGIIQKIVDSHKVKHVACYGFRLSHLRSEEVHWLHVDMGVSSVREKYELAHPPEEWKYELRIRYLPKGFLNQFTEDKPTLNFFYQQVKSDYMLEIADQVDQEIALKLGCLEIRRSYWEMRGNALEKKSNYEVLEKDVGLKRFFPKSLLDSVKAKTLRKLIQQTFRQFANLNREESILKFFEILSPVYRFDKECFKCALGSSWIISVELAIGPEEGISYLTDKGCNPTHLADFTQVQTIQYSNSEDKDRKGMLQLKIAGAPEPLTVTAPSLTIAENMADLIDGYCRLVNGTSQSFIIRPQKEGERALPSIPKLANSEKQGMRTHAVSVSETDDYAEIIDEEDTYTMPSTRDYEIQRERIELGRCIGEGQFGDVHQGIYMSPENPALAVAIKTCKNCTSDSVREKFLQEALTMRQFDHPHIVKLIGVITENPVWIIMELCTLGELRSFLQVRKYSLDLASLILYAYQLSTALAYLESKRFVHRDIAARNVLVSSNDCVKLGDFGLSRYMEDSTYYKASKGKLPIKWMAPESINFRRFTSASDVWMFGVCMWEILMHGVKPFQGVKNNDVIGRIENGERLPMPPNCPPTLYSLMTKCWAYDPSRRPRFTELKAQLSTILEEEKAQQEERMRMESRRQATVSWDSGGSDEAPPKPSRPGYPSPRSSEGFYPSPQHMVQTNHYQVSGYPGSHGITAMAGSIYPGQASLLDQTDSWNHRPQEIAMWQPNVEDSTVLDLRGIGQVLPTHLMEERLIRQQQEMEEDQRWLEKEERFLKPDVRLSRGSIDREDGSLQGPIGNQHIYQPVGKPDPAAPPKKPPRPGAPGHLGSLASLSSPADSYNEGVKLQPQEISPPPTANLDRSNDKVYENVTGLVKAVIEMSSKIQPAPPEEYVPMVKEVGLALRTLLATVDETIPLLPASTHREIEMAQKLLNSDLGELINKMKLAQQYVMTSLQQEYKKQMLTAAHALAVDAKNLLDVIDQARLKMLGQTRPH
UniProt Q14289, whole entry, looked up: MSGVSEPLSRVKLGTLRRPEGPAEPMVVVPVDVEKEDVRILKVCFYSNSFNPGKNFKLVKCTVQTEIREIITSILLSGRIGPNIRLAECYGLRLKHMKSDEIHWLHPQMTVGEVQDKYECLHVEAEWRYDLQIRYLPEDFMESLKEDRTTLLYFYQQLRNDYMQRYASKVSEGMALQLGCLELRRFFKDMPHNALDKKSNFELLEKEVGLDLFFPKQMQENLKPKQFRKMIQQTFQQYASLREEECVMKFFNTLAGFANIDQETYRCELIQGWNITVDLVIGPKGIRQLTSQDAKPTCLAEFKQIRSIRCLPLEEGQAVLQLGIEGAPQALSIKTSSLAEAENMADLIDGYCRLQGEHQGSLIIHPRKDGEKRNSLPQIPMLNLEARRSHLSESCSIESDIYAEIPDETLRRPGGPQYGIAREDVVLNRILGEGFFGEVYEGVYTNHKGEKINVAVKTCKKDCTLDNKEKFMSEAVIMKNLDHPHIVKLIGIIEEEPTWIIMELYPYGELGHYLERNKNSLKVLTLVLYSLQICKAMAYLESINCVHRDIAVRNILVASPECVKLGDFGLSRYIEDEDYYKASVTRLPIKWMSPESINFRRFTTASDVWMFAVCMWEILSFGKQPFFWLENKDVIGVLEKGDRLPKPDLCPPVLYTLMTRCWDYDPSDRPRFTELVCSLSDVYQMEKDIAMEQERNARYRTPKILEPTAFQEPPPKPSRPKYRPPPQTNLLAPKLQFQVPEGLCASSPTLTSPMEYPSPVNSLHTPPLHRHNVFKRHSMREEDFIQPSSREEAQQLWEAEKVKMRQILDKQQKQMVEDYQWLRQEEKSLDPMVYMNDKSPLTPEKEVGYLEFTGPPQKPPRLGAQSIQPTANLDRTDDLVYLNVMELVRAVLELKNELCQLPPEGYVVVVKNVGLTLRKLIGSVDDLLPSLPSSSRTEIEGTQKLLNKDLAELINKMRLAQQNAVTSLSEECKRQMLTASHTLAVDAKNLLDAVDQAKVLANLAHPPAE
UniProt P07949, whole entry, looked up: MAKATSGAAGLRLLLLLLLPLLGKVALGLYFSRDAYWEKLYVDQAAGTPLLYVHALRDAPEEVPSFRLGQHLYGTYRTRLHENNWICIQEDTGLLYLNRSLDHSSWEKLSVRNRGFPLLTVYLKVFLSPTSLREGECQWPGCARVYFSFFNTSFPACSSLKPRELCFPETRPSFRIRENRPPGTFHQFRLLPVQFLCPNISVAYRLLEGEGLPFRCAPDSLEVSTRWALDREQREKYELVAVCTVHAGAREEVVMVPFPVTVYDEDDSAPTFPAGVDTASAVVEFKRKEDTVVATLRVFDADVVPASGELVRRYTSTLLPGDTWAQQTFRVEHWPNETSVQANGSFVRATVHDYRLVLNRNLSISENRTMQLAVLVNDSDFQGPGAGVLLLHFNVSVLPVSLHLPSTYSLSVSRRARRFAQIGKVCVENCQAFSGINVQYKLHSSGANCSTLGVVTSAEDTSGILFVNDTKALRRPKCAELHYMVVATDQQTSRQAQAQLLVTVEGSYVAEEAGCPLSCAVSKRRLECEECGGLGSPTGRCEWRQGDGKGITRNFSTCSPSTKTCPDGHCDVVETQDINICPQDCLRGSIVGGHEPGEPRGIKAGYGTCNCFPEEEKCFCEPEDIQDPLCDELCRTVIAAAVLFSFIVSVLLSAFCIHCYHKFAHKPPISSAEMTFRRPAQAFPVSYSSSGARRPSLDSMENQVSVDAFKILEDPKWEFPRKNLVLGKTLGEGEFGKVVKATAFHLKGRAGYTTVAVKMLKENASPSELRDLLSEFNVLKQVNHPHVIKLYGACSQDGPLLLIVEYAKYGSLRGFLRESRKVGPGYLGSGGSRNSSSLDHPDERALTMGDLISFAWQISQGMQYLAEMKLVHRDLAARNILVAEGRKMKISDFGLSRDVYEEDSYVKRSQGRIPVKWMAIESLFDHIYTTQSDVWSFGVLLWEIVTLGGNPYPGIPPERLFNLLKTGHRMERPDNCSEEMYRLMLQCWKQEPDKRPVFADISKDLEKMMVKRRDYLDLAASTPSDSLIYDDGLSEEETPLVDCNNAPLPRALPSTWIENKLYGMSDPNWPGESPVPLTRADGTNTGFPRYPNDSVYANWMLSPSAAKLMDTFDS
UniProt P07949, whole entry M918T, looked up: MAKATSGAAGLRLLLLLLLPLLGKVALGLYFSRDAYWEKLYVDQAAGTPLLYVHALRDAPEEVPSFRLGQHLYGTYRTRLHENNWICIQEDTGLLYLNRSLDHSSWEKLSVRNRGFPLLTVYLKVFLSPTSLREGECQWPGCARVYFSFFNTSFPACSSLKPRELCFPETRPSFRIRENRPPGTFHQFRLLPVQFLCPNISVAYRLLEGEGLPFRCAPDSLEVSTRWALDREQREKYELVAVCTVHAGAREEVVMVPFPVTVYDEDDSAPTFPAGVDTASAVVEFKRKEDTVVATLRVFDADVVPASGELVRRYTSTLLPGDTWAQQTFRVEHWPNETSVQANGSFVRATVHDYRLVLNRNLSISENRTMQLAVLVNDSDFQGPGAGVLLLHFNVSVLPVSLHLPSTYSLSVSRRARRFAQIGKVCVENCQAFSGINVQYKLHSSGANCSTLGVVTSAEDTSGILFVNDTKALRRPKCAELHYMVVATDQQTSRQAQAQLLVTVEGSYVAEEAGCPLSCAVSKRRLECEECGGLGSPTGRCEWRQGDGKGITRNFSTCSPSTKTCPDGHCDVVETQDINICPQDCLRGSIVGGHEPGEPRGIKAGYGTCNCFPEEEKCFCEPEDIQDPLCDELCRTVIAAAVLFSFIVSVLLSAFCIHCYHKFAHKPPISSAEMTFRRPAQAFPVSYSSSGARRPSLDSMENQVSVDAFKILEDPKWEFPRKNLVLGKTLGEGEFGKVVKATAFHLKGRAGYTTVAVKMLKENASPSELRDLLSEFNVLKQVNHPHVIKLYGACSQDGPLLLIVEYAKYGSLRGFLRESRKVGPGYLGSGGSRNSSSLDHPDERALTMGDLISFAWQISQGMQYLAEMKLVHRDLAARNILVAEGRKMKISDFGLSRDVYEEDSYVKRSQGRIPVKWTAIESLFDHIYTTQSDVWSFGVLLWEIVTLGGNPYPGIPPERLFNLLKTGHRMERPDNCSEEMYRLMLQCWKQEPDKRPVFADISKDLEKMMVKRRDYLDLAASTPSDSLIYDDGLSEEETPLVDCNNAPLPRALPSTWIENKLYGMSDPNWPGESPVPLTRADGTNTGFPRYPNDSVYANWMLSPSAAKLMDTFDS
UniProt Q9BRS2: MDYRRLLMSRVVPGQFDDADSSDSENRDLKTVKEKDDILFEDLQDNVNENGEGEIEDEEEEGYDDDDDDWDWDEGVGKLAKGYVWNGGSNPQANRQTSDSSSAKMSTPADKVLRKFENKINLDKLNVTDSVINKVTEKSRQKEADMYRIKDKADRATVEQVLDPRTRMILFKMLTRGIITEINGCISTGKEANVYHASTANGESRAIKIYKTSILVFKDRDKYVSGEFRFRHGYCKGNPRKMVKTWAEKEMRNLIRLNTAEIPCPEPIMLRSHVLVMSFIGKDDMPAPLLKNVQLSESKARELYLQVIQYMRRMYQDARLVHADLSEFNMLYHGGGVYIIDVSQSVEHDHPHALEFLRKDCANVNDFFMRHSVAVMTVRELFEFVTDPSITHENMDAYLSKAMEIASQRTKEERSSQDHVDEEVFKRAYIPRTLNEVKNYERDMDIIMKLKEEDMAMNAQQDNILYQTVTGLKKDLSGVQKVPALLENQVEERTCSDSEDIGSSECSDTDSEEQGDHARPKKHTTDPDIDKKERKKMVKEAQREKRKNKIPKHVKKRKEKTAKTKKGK
UniProt Q13546: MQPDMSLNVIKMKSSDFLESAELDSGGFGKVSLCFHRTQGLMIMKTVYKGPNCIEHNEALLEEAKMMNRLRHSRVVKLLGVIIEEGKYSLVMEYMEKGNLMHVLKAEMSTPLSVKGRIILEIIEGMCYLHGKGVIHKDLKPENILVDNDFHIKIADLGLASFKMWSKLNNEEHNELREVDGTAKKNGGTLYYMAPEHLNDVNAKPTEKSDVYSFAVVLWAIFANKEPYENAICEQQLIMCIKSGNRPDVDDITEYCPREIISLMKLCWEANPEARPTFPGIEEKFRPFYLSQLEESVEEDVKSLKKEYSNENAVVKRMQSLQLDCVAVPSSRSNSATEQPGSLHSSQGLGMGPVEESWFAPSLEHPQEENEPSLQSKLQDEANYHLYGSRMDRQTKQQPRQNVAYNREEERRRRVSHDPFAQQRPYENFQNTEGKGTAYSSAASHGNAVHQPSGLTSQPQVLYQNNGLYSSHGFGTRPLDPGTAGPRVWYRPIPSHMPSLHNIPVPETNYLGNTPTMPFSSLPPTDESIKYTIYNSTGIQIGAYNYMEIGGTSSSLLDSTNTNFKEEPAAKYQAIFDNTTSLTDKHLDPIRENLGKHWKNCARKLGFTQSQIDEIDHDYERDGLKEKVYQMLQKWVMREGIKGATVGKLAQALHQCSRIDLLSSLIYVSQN

Legend:
Experiment in all cases: number of time points (of 5) at which kinase-Nluc abundance scored as decreased, DMSO-normalised (count); higher = more persistent destabilization
Conditions in all cases: K562; 2-18 h
PRKCA = PRKCA (UniProt P17252)
PTK2 = PTK2 (UniProt Q05397)
PTK2B = PTK2B (UniProt Q14289)
RAF1 = RAF1 (UniProt P04049)
[1] = target: RAF1_S257L (clone: RAF1_mut) (UniProt P04049)
RET = RET (UniProt P07949)
[2] = target: RET_M918T (clone: RET_mut) (UniProt P07949)
RIOK1 = RIOK1 (UniProt Q9BRS2)
RIPK1 = RIPK1 (UniProt Q13546)
RIPK2 = RIPK2 (UniProt O43353)

Measured: number of time points

Cc1nc(NC(=O)NCCc2nnn(CCF)n2)sc1-c1ccc(S(C)(=O)=O)c(F)c1 (10 µM)
0: all assays above

O=C(CO)N1CCC(c2n[nH]c(-c3ccc(Cl)cc3)c2-c2ccncn2)CC1 (10 µM)
0: all assays above

N#C/C(=C(/N)Sc1ccc(N)cc1)c1ccccc1C(F)(F)F (10 µM)
0: all assays above

CN(C)c1ncnc2nc[nH]c12 [6-(Dimethylamino)purine] (10 µM)
0: all assays above

CC(=O)Nc1nc2ccc(-c3cnc(C)c(NC(=O)OC4CCCCC4)c3)cc2s1 (10 µM)
0: all assays above

C=CS(=O)(=O)c1ccc(Nc2nc(OCC3CCCCC3)c3[nH]cnc3n2)cc1 (2.5 µM)
3: [1] | RIPK1
0: all other assays above

CC(C)C[C@H](NC(=O)[C@H](CCCCN)NC(=O)[C@H](CO)NC(=O)[C@@H](N)CC(C)C)C(N)=O [LSKL, Inhibitor of Thrombospondin (TSP-1) (TFA)] (10 µM)
0: all assays above

COc1c(O)cc2oc3cc(O)c(CC=C(C)C)c(O)c3c(=O)c2c1CCC(C)(C)O [Garcinone D] (2.5 µM)
0: all assays above

Of the compounds above, these contain fluorine.
Cc1nc(NC(=O)NCCc2nnn(CCF)n2)sc1-c1ccc(S(C)(=O)=O)c(F)c1 (10 µM)
0: all assays above

N#C/C(=C(/N)Sc1ccc(N)cc1)c1ccccc1C(F)(F)F (10 µM)
0: all assays above

Going on with the list.

CC[C@@H]1[C@H](F)C(=O)N[C@@H]1COc1nccc2cc(C(N)=O)c(OC)cc12 (10 µM)
0: all assays above

CC[C@H](C)[C@H](NC(=O)[C@H](CCC(=O)O)NC(=O)[C@H](CCCN=C(N)N)NC(=O)[C@H](CCCN=C(N)N)NC(=O)[C@@H](N)CCCCN)C(=O)N[C@@H](CC(C)C)C(=O)N[C@@H](CO)C(=O)N[C@@H](CCCN=C(N)N)C(=O)N[C@@H](CCCN=C(N)N)C(=O)N1CCC[C@H]1C(=O)N[C@@H](CO)C(=O)N[C@@H](Cc1ccc(O)cc1)C(=O)N[C@@H](CCCN=C(N)N)C(=O)O [CREBtide] (10 µM)
0: all assays above

OCCN(CCO)c1ccc(C(c2ccc(Cl)cc2)c2ccc(N(CCO)CCO)cc2)cc1 (10 µM)
3: RIOK1
2: RIPK2
1: PTK2 | RAF1 | RIPK1
0: all other assays above

CC1=C(CC(=O)O)c2cc(F)ccc2/C1=C\c1ccc(C(C)C)cc1 (10 µM)
1: PRKCA
0: all other assays above

N=C(N)NC(=N)NCCc1ccccc1 [Phenformin (hydrochloride)] (10 µM)
0: all assays above

O=C(CCCCCn1cc(Nc2ncc(Cl)c(Nc3ccc(Cl)cc3)n2)cn1)NO (2.5 µM)
1: RET
0: all other assays above

C[C@H]1[C@H](OC(=O)CCC(=O)O)O[C@@H]2O[C@@]3(C)CC[C@H]4[C@H](C)CC[C@@H]1[C@@]24OO3 [Artesunate] (2.5 µM)
1: RAF1 | RET | RIPK1 | RIPK2
2: [1]
0: all other assays above

Cc1cc(Nc2cc(CN3CCOCC3)c3nc(C)c(Cc4ccc(Cl)cc4F)n3n2)n[nH]1 [Gandotinib] (2.5 µM)
0: all assays above

O=C1NC(=O)C(c2cnc3ccccn23)=C1c1cn2c3c(cc(F)cc13)CN(C(=O)N1CCCCC1)CC2 (2.5 µM)
0: all assays above

COc1cc(N2CCC(N(C)C)CC2)ccc1Nc1ncc(Cl)c(Nc2ccccc2P(C)(C)=O)n1 (2.5 µM)
0: all assays above

O=C(O)c1cc(O)c2c(c1)[C@@H]([C@H]1c3cc(C(=O)O)cc(O)c3C(=O)c3c(O[C@@H]4O[C@H](CO)[C@@H](O)[C@H](O)[C@H]4O)cccc31)c1cccc(O[C@@H]3O[C@H](CO)[C@@H](O)[C@H](O)[C@H]3O)c1C2=O [Sennoside B] (2.5 µM)
0: all assays above

CCCC(=O)Nc1nc2c(ncn2[C@@H]2O[C@@H]3COP(=O)(O)O[C@H]3[C@H]2OC(=O)CCC)c(=O)[nH]1 [Dibutyryl-cGMP (sodium)] (10 µM)
0: all assays above

c1ccc(-c2nn3c(c2-c2ccnc4cc(OCCN5CCOCC5)ccc24)CCC3)nc1 (10 µM)
4: RIPK2
0: all other assays above

O=C1NC(=O)/C(=C/c2ccc(-c3ccc(F)cc3O)o2)S1 (10 µM)
0: all assays above

CC(C)Oc1ccc(-c2cnc3c(-c4ccnc5ccccc45)cnn3c2)cc1 (10 µM)
0: all assays above

C[C@@H]1CCc2ncc(F)cc2[C@H]2CCCN2c2ccn3ncc(c3n2)C(=O)N1 [Selitrectinib] (10 µM)
0: all assays above

COc1nc(-c2cccc3c2OCCO3)ccc1Nc1ccc(CN(C)C)cc1 [RAS inhibitor Abd-7] (10 µM)
0: all assays above

Cn1cc(-c2ccc(F)c(C(F)(F)F)c2)nc1C1CCN(c2ncnc3[nH]ncc23)CC1 (10 µM)
0: all assays above

COc1ccc(-n2c(C)c([N+](=O)[O-])c3ccc(O)cc32)cc1 (10 µM)
0: all assays above

O=c1[nH]ccc2cc(OC3CCNCC3)ccc12 (10 µM)
0: all assays above

Cn1cc(-c2ccc3nnc(C(F)(F)c4ccc5ncccc5c4)n3n2)cn1 (10 µM)
0: all assays above

O=c1ccoc2cc(O)ccc12 [7-Hydroxy-4H-chromen-4-one] (10 µM)
0: all assays above

COc1ccc(CCNc2ncc3c(=O)n(-c4cccc(F)c4)c(=O)[nH]c3n2)cc1OC (2 µM)
0: all assays above

O=C(NOCCO)c1ccc2cncn2c1Nc1ccc(I)cc1F (10 µM)
1: RAF1 | RIOK1 | RIPK1
0: all other assays above

O=[N+]([O-])c1ccc(Sc2cccc[n+]2[O-])c2nonc12 (2.5 µM)
0: all assays above

[O-][n+]1cccc(-c2nc3c(Cl)cccc3cc2[C@@H](Nc2ncnc3cccnc23)C(F)(F)F)c1 [Seletalisib] (10 µM)
0: all assays above

O=Nc1c(-c2c(O)[nH]c3ccccc23)[nH]c2ccccc12 [Indirubin-3'-monoxime] (2.5 µM)
0: all assays above

C[C@@H]1C[C@H]2O[C@@]3(O[C@@H]2C(C)(C)O)[C@H](O)[C@@]2(C)[C@@H]4CC[C@H]5C(C)(C)[C@@H](O[C@@H]6OC[C@H](O)[C@H](O)[C@H]6O)CC[C@@]56C[C@@]46CC[C@]2(C)[C@@H]13 [Cimiracemoside C] (10 µM)
0: all assays above
